Source: PubChem BioAssay AID504847 (National Center for Advancing Translational Sciences (NCATS), 2011)
In all, about 400,000 compounds went through this assay and about 3,700 (0.93%) were called active. Inconclusive results, whose numbers are uncertain, are shown with a selection of clear calls. Calls come from the whole dose curve; as a rule, active = well fitted inhibition curve with a large enough effect; inconclusive = small, poorly fitted or top-dose-only effect, or another doubt; inactive = no such curve, though single readings can be large or run the other way. Potencies of inconclusive entries are doubtful fits and often do not repeat. Some compounds were tested as several samples or in several runs, with calls that do not always agree.

Sequences of proteins named here, by UniProt entry; tags and fusion partners are left off. A change or cut given only in a name is not applied to a line headed by its entry.
UniProt P11473: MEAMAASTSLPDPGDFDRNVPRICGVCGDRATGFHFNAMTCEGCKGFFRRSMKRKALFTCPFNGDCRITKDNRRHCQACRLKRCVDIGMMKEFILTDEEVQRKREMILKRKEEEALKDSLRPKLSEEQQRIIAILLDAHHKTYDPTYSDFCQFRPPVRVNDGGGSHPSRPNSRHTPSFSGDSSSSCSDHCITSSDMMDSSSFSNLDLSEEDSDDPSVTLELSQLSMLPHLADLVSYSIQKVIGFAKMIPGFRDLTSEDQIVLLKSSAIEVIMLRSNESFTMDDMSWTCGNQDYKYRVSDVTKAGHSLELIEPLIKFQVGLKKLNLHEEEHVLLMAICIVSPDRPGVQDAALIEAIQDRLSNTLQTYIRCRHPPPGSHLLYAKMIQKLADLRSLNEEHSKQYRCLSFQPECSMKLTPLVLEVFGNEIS

Each molecule was assayed against Vitamin D3 receptor (Homo sapiens) (UniProt P11473) (assay: Inhibitors of the vitamin D receptor (VDR): qHTS). Details: VDR-SRC2-3 peptide fluorescence polarization, 2 h; max response, negative = inhibition: active compounds read low.
Outline: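 Measured by FP: displacement of SRC2-3 coactivator peptide from VDR by library compounds, following a two-hour ambient incubation.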
% is set by controls: 0 for no effect and ±100 for the full control effect; potency is the fitted concentration of half-maximal effect.

| SMILES | max response, negative = inhibition | Potency |
| --- | --- | --- |
| CCOC(=O)c1c(C)n(C(C)C)c2ccc(OC(=O)c3ccc(N4C(=O)CCC4=O)cc3)cc12 | inactive: 0.618% |  |
| N#CC(C#N)=Cc1cc(O)c(O)c([N+](=O)[O-])c1 |  | active: 44.7 µM |
| COCCNC(=O)c1c(NC(=O)c2ccco2)n(Cc2ccccc2)c2nc3ccccc3nc12 | inactive: -16% |  |
| CCN(CC)c1ccc(/C=C2/C(=O)NC(=O)N(Cc3ccco3)C2=O)cc1 |  | inconclusive: 89.1 µM [inhibitor, single point] |
| CCOP(=O)(OCC)C(NCc1ccccc1)c1ccc(Br)cc1 (stereo unspecified) |  | inconclusive: 39.8 µM [inhibitor, single point] |
| Cc1cc(C(C#N)c2ccc(Cl)cc2)c(Cl)cc1NC(=O)c1cc(I)cc(I)c1O (stereo unspecified) |  | inconclusive: 25.1 µM [inhibitor, partial curve] |
| CCCCN1C(=O)/C(=C/C=C/c2ccco2)C(=O)NC1=S |  | inconclusive: 89.1 µM [inhibitor, single point] |
| O=C(O)c1nn(Cc2ccc(Cl)cc2Cl)c2ccccc12 |  | inconclusive: 44.7 µM [inhibitor, partial curve, poor fit] |
| O=c1c(C=NCc2cccs2)c(O)n(C2CCCCC2)c(=O)n1C1CCCCC1 | inactive: -14.9% |  |
| O=C(Cc1c(Cl)cccc1Cl)N1CCN(Cc2ccccc2)CC1 |  | inconclusive: 89.1 µM [inhibitor, single point] |
| CC(C)CN1CCC2(CC1)CCN(S(C)(=O)=O)CC2 | inactive: 4.19% |  |
| Cc1ccccc1-n1c(O)c(C=Nc2ccc(N(C)C)cc2)c(=O)[nH]c1=O |  | inconclusive: 89.1 µM [inhibitor, single point] |
| Cc1ccc(/C=C2/C(=O)NC(=O)N(CCc3ccc(F)cc3)C2=O)s1 |  | inconclusive: 89.1 µM [inhibitor, single point] |
| ClC1=C(Cl)C2(Cl)C3C4CC(C5OC45)C3C1(Cl)C2(Cl)Cl (stereo unspecified) |  | inconclusive: 79.4 µM [inhibitor, partial curve, poor fit] |
| COc1ccc(NC(=O)CN2C3CCC2CC(O)(c2cccnc2)C3)cc1OC (stereo unspecified) |  | inconclusive: 11.2 µM [inhibitor, partial curve, poor fit] |
| CC1=C2C(=COC(C)C2C)C(=O)C(C(=O)O)=C1O (stereo unspecified) |  | inconclusive: 89.1 µM [inhibitor, single point] |
| C/C(=N\Nc1ccccc1)c1c(O)[nH]c(=O)[nH]c1=O | inactive: 1.78% |  |
| CC[C@@H]1[C@@H]2C[C@H]3[C@H]4N(C)c5ccccc5[C@@]45C[C@@H]([C@@H]2[C@@H]5O)N3[C@H]1O | inactive: 1.89% |  |
| CNC(=O)Oc1cccc2ccccc12 |  | active: 14.1 µM |
| CN(C(=O)COc1nc2ccccc2s1)c1ccccc1 | inactive: 11.4% |  |
| CN1C2CCC1CC(OC(c1ccccc1)c1ccc(Cl)cc1)C2 (stereo unspecified) |  | inconclusive: 89.1 µM [inhibitor, partial curve, poor fit] |

Some of the entries so far, bar-delimited:
SMILES | max response, negative = inhibition | Potency
CC1=C2C(=COC(C)C2C)C(=O)C(C(=O)O)=C1O (stereo unspecified) |  | inconclusive: 89.1 µM [inhibitor, single point]
C/C(=N\Nc1ccccc1)c1c(O)[nH]c(=O)[nH]c1=O | inactive: 1.78% | 
CC[C@@H]1[C@@H]2C[C@H]3[C@H]4N(C)c5ccccc5[C@@]45C[C@@H]([C@@H]2[C@@H]5O)N3[C@H]1O | inactive: 1.89% | 

The listing continues.

| SMILES | max response, negative = inhibition | Potency |
| --- | --- | --- |
| O=c1[nH]c(=O)n(CCc2ccc(F)cc2)c(O)c1/C=N/N1CCCCC1 |  | inconclusive: 70.8 µM [inhibitor, partial curve] |
| COc1cc(C=C2C(=O)NC(=O)NC2=O)cc(OC)c1OC |  | inconclusive: 63.1 µM [inhibitor, partial curve, poor fit] |
| O=c1[nH]c(=O)n(-c2ccccc2)c(O)c1/C=C1/C(c2ccccc2)=Nc2ccccc21 |  | inconclusive: 56.2 µM [inhibitor, partial curve, poor fit] |
| CC1=CC2/C=C(\C)CCC(O)C(O)/C=C/C(=O)C23C(=O)NC(CC(C)C)C3C1C (stereo unspecified) |  | active: 22.4 µM |
| CC(=O)c1ccc2c(c1)C1C(Cl)C(Sc3ccccc3[N+](=O)[O-])CC1C(c1ccccc1)N2 (stereo unspecified) |  | inconclusive: 100 µM [inhibitor, single point] |
| CCOC(=O)c1[nH]c2ccc(OC)cc2c1C(SCC(=O)O)c1ccc(C(F)(F)F)cc1 (stereo unspecified) |  | inconclusive: 79.4 µM [inhibitor, partial curve] |
| O=C1NC(=O)C2(Cc3ccccc3N3CCCC32)C(=O)N1Cc1ccccc1 (stereo unspecified) |  | inconclusive: 35.5 µM [inhibitor, partial curve, poor fit] |
| Cc1ccc(NC2C(=O)NC(=O)NC2=O)cc1 |  | active: 14.1 µM |
| COc1ccccc1/C=C1\C(=O)NC(=S)N(c2ccccc2)C1=O |  | active: 50.1 µM |
| CCc1nccc2c1[nH]c1ccccc12 |  | inconclusive: 89.1 µM [inhibitor, partial curve, poor fit] |
| Cn1cc(C(O)CN2CCCCC2)c2ccccc21 (stereo unspecified) |  | inconclusive: 63.1 µM [inhibitor, partial curve, poor fit] |
| CC(C)C[C@H]1C(=O)N2CCC[C@H]2[C@]2(O)O[C@](NC(=O)[C@@H]3C=C4c5cccc6[nH]cc(c56)C[C@H]4N(C)C3)(C(C)C)C(=O)N12 |  | active: 79.4 µM |
| O=C1/C(=C/c2ccc([N+](=O)[O-])cc2)N2CCC1CC2 | inactive: -12.5% |  |
| N#C/C(=C\c1ccc([N+](=O)[O-])cc1)c1nc(C2CC2)cs1 |  | inconclusive: 89.1 µM [inhibitor, single point] |
| Cc1cc(/C=C2\C(=O)NC(=O)N(Cc3ccccc3Cl)C2=O)c(C)n1-c1ccc(C(=O)O)cc1 |  | inconclusive: 79.4 µM [inhibitor, partial curve, poor fit] |
| COc1ccc(OCc2nnc(SCC(=O)NCC3CCCO3)n2N)cc1 (stereo unspecified) |  | inconclusive: 89.1 µM [inhibitor, single point] |
| CNc1cc(Cl)c2nonc2c1[N+](=O)[O-] |  | active: 35.5 µM |
| CC(C)CC1C(C#N)=C(N)Oc2c1c(=O)oc1ccccc21 (stereo unspecified) |  | inconclusive: 50.1 µM [inhibitor, partial curve, poor fit] |
| COC(=O)C1=Nc2ccccc2/C1=C\c1c(O)n(-c2cc(OC)ccc2OC)c(=O)[nH]c1=O |  | inconclusive: 56.2 µM [inhibitor, partial curve, poor fit] |
| CC(C)CN(CC(C)C)c1ccc(C=C2C(=O)NC(=S)NC2=O)cc1[N+](=O)[O-] |  | active: 35.5 µM |
